Results on 22 molecules are retold here after PubChem BioAssay (NCATS).

The other results are listed elsewhere or left out. The main result of the screen is listed elsewhere. These columns were measured beside it and carry no call. The list favours compounds with an active or inconclusive main result. Potencies come from curve fits of mixed quality, noted in brackets.

A short description of the experiment: qHTS for identification of novel therapeutic agents for treatment of microphthalmiaassociated transcription factor (MiT) renal cell carcinoma (RCC) (AID 1963991). The settings on record: CellTiter-Glo, 48 h; for z-score: stronger effect = lower value. Put shortly:
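Three TFE3-fusion RCC lines (UOK109, UOK124, UOK145), 500 cells/well in complete medium, were treated with MIPE 4.0 compounds for 48 hours at 37 C. Viability was by CellTiter-Glo luminescence, normalized to DMSO (100%) and empty wells (0%); curves fitted over 11 concentrations.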

The mark [1] stands for this setting: TFE3-RCC UOK109 viability, measured here: UOK109 Z-AUC.
The mark [2] stands for this setting: TFE3-RCC viability, measured here: UOK124 Z-AUC.
Setting [3] is: TFE3-RCC viability, measured here: UOK124 cell viability.
[4] abbreviates: TFE3-RCC viability, measured here: UOK145 Z-AUC.
Where [5] appears, read: TFE3-RCC viability, measured here: UOK145 cell viability.

As for `CC1(C)Cc2c(-c3ccccc3)c(-c3ccc(Cl)cc3)c(CC(=O)O)n2C1`, the z-score was 0.481 under setting [1], 0.635 under setting [2] and 0.173 under setting [4]. The AC50 under setting [3] is 20.9 µM [falling, single point].

As to `CC(C)(C(=O)NCC(F)(F)C(F)(F)F)C(=O)N[C@@H]1C(=O)Nc2ccccc2-c2ccccc21`, the z-score is, setting by setting: under setting [1], -0.456; under setting [2], -2.85; under setting [4], 0.154. In addition, under setting [5], the AC50 is 8.33 µM [falling, partial curve].

The molecule `NC(=O)c1ncn([C@@H]2O[C@H](CO)[C@@H](O)[C@@H]2O)n1` returned a z-score under setting [1] of 0.958, a z-score under setting [2] of 0.851 and a z-score under setting [4] of 1.42. The AC50 under setting [5] was 20.9 µM [falling, partial curve].

`CC(C)(C)c1[nH]cnc1C=c1[nH]c(=O)c(=Cc2ccccc2)[nH]c1=O`: the z-score under setting [1] is -2.74, the z-score under setting [2] is -4.13 and the z-score under setting [4] was -1.84. For the same molecule, under setting [3], the AC50 is 0.00959 µM [falling, full curve, poor fit].

Take `NC1=N[C@H]2[C@H](CS[C@H]2CCCCC(=O)O)N1`: the z-score runs as follows: under setting [1], 1.16; under setting [2], 1.15; under setting [4], -1.62. In addition, the AC50 under setting [5] is 0.0363 µM [falling, partial curve, poor fit].

As for `CN(C)N=Nc1nc[nH]c1C(N)=O`, the z-score reads like this: under setting [1], 0.825; under setting [2], 2.2; under setting [4], 1.14. Besides, under setting [3], the AC50 was 0.0332 µM [rising, full curve].

Consider `CCn1c(C(=O)N(C2CC2)C2CC2)cc2c3c(ncn3C)c(Nc3cc(C)n(C)n3)nc21`, for which the z-score is, setting by setting: under setting [1], -0.508; under setting [2], 0.383; under setting [4], 0.0172. In addition, under setting [5], the AC50 was 26.4 µM [falling, partial curve, poor fit].

In turn, `O=C(NCc1ccccc1)[C@H](Cc1ccccc1)NC(=O)[C@@H]1O[C@@H]1C(=O)NCCc1ccc(O)cc1` had a z-score under setting [1] of -5.53, a z-score under setting [2] of 0.676 and a z-score under setting [4] of -3.85. The AC50 under setting [3] is 18.7 µM [falling, partial curve].

Take `COc1ccc(CCC(=O)c2c(O)cc(O[C@@H]3O[C@H](CO)[C@@H](O)[C@H](O)[C@@H]3O[C@@H]3O[C@@H](C)[C@H](O)[C@@H](O)[C@@H]3O)cc2O)cc1O`: the z-score by setting is: under setting [1], -0.193; under setting [2], 0.767; under setting [4], 0.27. Besides, the AC50 under setting [5] was 18.7 µM [falling, partial curve].

Regarding `CC[C@H]1OC(=O)[C@H](C)C(=O)[C@H](C)[C@@H](O[C@H]2O[C@H](C)C[C@H](N(C)C)[C@@H]2O)[C@](C)(OC)C[C@@H](C)C(=O)[C@H](C)[C@H]2N(CCCCn3cnc(-c4cccnc4)c3)C(=O)O[C@]12C`, the z-score is 1.7 under setting [1], -0.132 under setting [2] and 0.886 under setting [4]. In addition, the AC50 under setting [3] was 0.0148 µM [rising, full curve, poor fit].

In the case of `CC(C)C[C@H](CC(=O)O)C(=O)N[C@@H](Cc1c[nH]c2ccccc12)C(=O)N[C@@H](C)c1ccccc1`, the z-score runs as follows: under setting [1], -0.53; under setting [2], 0.629; under setting [4], -0.128. Also, under setting [5], the AC50 was 18.7 µM [falling, single point].

On to `CN(C)CCOc1ccc(C(=C(CCCl)c2ccccc2)c2ccccc2)cc1`, for which the z-score by setting is: under setting [1], 0.245; under setting [2], 0.0123; under setting [4], 0.4. The concentration at half-maximal activity (AC50) under setting [5] was 16.6 µM [falling, partial curve, poor fit].

Regarding `C[C@@H](NC(=O)c1ncnc(N)c1Cl)c1ncc(C(=O)Nc2cc(C(F)(F)F)c(Cl)cn2)s1`, the z-score was 0.677 under setting [1], 0.695 under setting [2] and 0.752 under setting [4]. Besides, the AC50 under setting [5] is 18.7 µM [falling, partial curve, poor fit].

The molecule `CC1(C)CCC[C@@]2(C)[C@@H]1CC[C@@]1(C)OC(=O)C[C@H]21` showed a z-score under setting [1] of 0.764, a z-score under setting [2] of 0.375 and a z-score under setting [4] of 1.27. In addition, the concentration at half-maximal activity (AC50) under setting [5] was 29.6 µM [falling, partial curve, poor fit].

With `COc1cc(Nc2nc3ccccc3nc2NS(=O)(=O)c2ccc(NC(=O)c3ccc(C)c(OC)c3)cc2)cc(OC)c1`, the z-score is, setting by setting: under setting [1], 0.572; under setting [2], 1.53; under setting [4], 0.0848. Under setting [5], the concentration at half-maximal activity (AC50) is 20.9 µM [falling, partial curve].

In the case of `NC1=N[C@@]2(c3cc(NC(=O)c4ccc(F)cn4)ccc3F)COC[C@@H]2CS1`, the z-score reads like this: under setting [1], -0.216; under setting [2], -2.01; under setting [4], 0.19. Also, the AC50 under setting [5] is 4.69 µM [falling, full curve].

As to `NC(N)=Nc1nc(CSCCC(N)=NS(N)(=O)=O)cs1`, the z-score is, setting by setting: under setting [1], 0.0967; under setting [2], 0.398; under setting [4], 0.481. For the same molecule, under setting [5], the AC50 is 23.5 µM [falling, partial curve, poor fit].

On to `NC(=O)[C@@H](CCC(F)(F)F)N(Cc1ccc(-c2ncon2)cc1F)S(=O)(=O)c1ccc(Cl)cc1`, for which the z-score worked out at 0.378 under setting [1], 0.478 under setting [2] and 0.275 under setting [4]. The AC50 under setting [5] is 20.9 µM [falling, partial curve, poor fit].

With `O=c1cc(O)c(Cl)c[nH]1`, the z-score runs as follows: under setting [1], -0.273; under setting [2], 0.529; under setting [4], 0.637. Under setting [5], the AC50 was 3.32 µM [falling, full curve].

On to `CC(C)[N+]1(C)[C@@H]2CC[C@H]1CC(OC(=O)C(CO)c1ccccc1)C2` (stereo partly drawn), for which the z-score under setting [1] is -0.217, the z-score under setting [2] worked out at 0.224 and the z-score under setting [4] turned out to be 0.378. The AC50 under setting [5] is 18.7 µM [falling, partial curve, poor fit].

For the molecule `CC1(C)O[C@@H]2C[C@@H]3[C@H]4C[C@@H](F)C5=CC(=O)C=C[C@]5(C)[C@@]4(F)[C@@H](O)C[C@]3(C)[C@]2(C(=O)CO)O1`, the z-score runs as follows: under setting [1], 0.513; under setting [2], 0.596; under setting [4], 2.2. The AC50 under setting [5] was 1.05 µM [falling, partial curve, poor fit].

As to `Fc1ccc(C(c2ccc(F)cc2)N2CCN(CC=Cc3ccccc3)CC2)cc1`, the z-score reads like this: under setting [1], 0.763; under setting [2], 0.528; under setting [4], 0.248. Moreover, the AC50 under setting [3] is 33.2 µM [falling, partial curve, poor fit].
